Primary screen of a compound library

Amino acid sequences for entries named in this document (tags omitted).
UniProt P9WPC5, whole entry: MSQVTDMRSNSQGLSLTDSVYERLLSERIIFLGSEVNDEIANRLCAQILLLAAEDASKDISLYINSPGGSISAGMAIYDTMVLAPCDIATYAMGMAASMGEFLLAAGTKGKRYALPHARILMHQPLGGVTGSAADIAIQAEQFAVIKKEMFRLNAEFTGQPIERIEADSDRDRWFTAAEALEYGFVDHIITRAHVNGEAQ
UniProt P9WPC3, whole entry partner: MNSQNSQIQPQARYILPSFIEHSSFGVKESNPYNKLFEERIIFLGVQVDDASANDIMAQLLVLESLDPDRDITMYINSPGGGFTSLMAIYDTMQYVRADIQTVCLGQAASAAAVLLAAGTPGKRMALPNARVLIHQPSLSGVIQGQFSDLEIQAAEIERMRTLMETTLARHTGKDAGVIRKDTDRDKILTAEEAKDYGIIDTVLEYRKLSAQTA
UniProt I6X8D2, whole entry: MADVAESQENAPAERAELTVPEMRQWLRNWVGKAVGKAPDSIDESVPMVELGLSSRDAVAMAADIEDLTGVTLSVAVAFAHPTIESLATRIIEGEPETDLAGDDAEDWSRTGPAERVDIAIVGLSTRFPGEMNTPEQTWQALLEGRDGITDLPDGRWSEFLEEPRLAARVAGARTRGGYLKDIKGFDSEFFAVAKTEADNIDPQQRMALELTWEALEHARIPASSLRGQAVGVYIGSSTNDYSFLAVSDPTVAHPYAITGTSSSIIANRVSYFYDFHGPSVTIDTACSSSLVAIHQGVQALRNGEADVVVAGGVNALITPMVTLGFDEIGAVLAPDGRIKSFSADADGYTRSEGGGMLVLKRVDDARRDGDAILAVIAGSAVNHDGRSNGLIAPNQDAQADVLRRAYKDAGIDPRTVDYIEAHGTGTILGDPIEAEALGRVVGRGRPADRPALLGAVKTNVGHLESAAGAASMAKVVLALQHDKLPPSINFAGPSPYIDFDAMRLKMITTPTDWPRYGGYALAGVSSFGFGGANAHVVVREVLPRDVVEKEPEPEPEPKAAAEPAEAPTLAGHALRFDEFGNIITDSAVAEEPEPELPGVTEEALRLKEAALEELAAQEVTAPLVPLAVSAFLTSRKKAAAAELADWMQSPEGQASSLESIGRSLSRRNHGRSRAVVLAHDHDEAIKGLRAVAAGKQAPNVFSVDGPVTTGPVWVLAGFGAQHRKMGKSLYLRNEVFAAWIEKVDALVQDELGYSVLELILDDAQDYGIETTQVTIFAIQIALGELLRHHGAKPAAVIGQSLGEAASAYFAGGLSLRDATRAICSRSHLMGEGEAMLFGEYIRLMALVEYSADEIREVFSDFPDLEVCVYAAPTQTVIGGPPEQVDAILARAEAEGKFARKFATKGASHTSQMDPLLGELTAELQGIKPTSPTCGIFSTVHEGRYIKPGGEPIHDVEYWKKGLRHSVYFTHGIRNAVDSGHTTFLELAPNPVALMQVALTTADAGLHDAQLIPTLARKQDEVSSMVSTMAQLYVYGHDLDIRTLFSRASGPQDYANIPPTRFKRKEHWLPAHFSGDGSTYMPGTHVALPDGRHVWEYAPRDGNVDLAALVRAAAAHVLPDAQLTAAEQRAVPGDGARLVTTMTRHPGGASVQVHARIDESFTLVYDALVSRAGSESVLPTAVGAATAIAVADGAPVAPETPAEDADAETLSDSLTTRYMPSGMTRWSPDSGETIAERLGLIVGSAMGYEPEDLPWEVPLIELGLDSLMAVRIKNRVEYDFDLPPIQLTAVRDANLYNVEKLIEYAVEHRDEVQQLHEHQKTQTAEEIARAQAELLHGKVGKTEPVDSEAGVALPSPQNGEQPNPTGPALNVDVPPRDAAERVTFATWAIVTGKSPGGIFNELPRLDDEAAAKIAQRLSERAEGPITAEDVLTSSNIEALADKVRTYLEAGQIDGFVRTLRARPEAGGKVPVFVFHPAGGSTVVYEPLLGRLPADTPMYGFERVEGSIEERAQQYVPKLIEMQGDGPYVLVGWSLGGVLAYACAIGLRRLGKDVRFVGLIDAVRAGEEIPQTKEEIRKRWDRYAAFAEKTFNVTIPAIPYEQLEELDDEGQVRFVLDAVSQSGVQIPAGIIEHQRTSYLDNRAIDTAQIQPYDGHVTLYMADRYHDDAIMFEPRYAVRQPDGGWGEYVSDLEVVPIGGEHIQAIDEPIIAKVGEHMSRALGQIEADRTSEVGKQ

Measurements from “University of Dundee, Small-Polar-MMV Screening Library” (2021), ChEMBL document CHEMBL3988442.

Values are the deposited “Percent Effect”, in %.
How 0% and 100% were set is not recorded. Most values in the screen are low, and negative values occur.
Compounds were drawn at random from those tested, without regard to their results.

A: 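Cell assay of Leishmania donovani living inside macrophages; the read-out is not stated. Concentration: 30 µM. The record gives no direction; compounds that gave an IC50 in retests scored well above the rest, so higher reads as stronger inhibition. About 69,000 compounds were tested under these conditions; 1.5% (about 1,000) showed 50% or more at least once.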
B: 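Assay of Toxoplasma gondii numbers, read through their beta-galactosidase reporter with a colour substrate. Compounds at 10 µM. Higher reads as fewer parasites (inferred from which compounds were picked for retests). Size under these conditions: about 67,000 compounds, about 260 of them at 50% or above in at least one test.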
C: 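Protease assay of ClpP1P2, read by the AMC dye that it sets free. Target: ClpP1P2, Mycobacterium tuberculosis (UniProt P9WPC5 and UniProt P9WPC3). Tested at 50 µM. Higher reads as stronger inhibition, judged from the few compounds that gave an IC50. Most other retested compounds had strongly negative values. Of about 69,000 compounds tested this way, about 10 (0.015%) reached 50% or more in at least one test.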
D: 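Whole-parasite assay of Trypanosoma brucei over 72 hours; the read-out is not stated. Tested at 30 µM. Direction is inferred from retests: higher values go with stronger inhibition. Values scatter widely below zero; nearly all retest evidence comes from the higher of the two concentrations used. Of about 64,000 compounds tested this way, about 940 (1.5%) reached 50% or more in at least one test.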
E: 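Polyketide synthase Pks13, Mycobacterium tuberculosis (UniProt I6X8D2). Enzyme assay of the thioesterase domain of polyketide synthase 13; the read-out is not stated. Concentration: 30 µM. The record gives no direction; the compounds picked for IC50 retests had high values, so higher reads as stronger inhibition. Of about 67,000 compounds tested this way, about 300 (0.46%) reached 50% or more in at least one test.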

{"structure": "COc1ccc(CCC(=O)N(C)Cc2c(C)nn(C)c2C)cc1", "A": 45.12, "B": 16.64, "C": -4.489, "E": -20.07}
{"structure": "[H][C@]12CCN(C(=O)c3cc(C)on3)CC[C@@]1([H])S(=O)(=O)N(CCC(C)C)C2", "A": -6.972, "B": -5.141, "D": -15.89}
{"structure": "Cc1cc(Cl)ccc1-n1ncc(C(=O)N(C)CCc2ccccn2)c1N", "A": 5.547, "B": 2.339, "C": 9.173, "D": -25.4, "E": -24.01}
{"structure": "[H][C@@]12CCN(C(=O)c3ccccc3)C[C@@]1([H])O[C@@H](c1nnc(C3CC3)o1)C2", "A": 15.59, "B": -8.603, "D": -35.08}
{"structure": "CCOCCN1CCN(CCOCC(F)(F)F)CC1", "A": 14.73, "B": 15.69, "C": -1.6, "D": 9.223, "E": -0.2657}
{"structure": "O=C(C1CCCO1)N1CCCC2(CCN(c3cccnc3)CC2)C1", "stereo": "stereo not given", "C": -14.59, "E": 7.85}
{"structure": "[H][C@]12CCC(=O)N(c3ccccc3)[C@@]1([H])CCN2C(=O)c1cscn1", "A": 4.628, "B": 7.286, "D": -20.89}
{"structure": "F[C@@H]1CN(CC2CCCCC2)C[C@@H]1OCc1nc2ccccc2o1", "A": 24.91, "B": -0.6448, "C": -7.888, "D": 3.773, "E": -24.12}
{"structure": "Nc1nc(O)cc(N2CCC(c3cc(Cc4ccccc4)n[nH]3)CC2)n1", "A": 4.937, "B": 2.428, "C": -12.82, "D": -102.6, "E": -9.76}
{"structure": "COc1ccc(CN2C[C@@H]3OCCN(c4ncccn4)[C@@H]3C2)cc1", "C": -2.695, "E": -27.36}
{"structure": "CC(=O)NCCNC(=O)CCn1c(C)cc2ccccc21", "A": 27.31, "B": -24.07, "C": -26.07, "D": -21.52, "E": 0.8631}
{"structure": "CCc1cc(O)n2nc(C3CCCN3C(=O)c3ccccn3)cc2n1", "stereo": "stereo not given", "A": 8.242, "B": 28.73, "C": 2.726, "D": -20.45, "E": 2.876}
{"structure": "CCc1ocnc1C(=O)N1CCC2(CC1)OCC(C)O2", "stereo": "stereo not given", "A": 34.34, "B": -1.643, "C": -7.582, "D": -33.27, "E": -21.46}
{"structure": "O=C(O)c1cc(/C=C/c2cccc3ccccc23)ncn1", "A": 21.64, "B": 7.326, "C": 3.36, "D": 18.14, "E": 4.61}
{"structure": "COCCCn1ccc(NC(=O)NCCCn2ccnc2)n1", "A": 2.018, "B": 21.27, "C": -6.846, "D": -19.49, "E": -46.36}
{"structure": "CCNc1cc2c(nn1)CCN(C(=O)C1Cc3ccccc3O1)C2", "stereo": "stereo not given", "A": 24.3, "B": -25.48, "C": 3.527, "D": -5.478, "E": -19.47}
{"structure": "[H][C@@]12CCN(Cc3ccc(C)o3)C[C@]1([H])[C@@H](CN(C)C)OC2", "A": 42.19, "B": 8.718, "D": -20.46}
{"structure": "[H][C@]12CC[C@]([H])(CN(C(=O)N(C)C)C1)N(S(=O)(=O)c1cccnc1)C2", "A": 2.367, "B": -2.679, "D": 9.449}